# Measurements: PubChem BioAssay AID1508600 (Functional Genomics Laboratory (NCATS/FGL), 2020)
# Screen size: about 53,000 sequences; about 3,700 (7%) were called active.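 How the source made its calls: active means gene knockdowns whose robust z-score for IL-1 alpha signal is at least 2 or at most -2, so actives lie on both sides; inactive means the rest.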 The list shows a part of the results.
# Assay: Components of the Cytosolic LPS Sensing Pathway: Gene Identification via Genome-wide siRNA Screen;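 further: robust z of the log signal after scaling to non-targeting control siRNA wells of the plate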
# Conditions: RAW264.7 macrophages, IL-1a HTRF, actives lie on both sides, screened at 100 nM (by protocol), cells primed 5 h with Pam3CSK4 first
# Summary of the method: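 Knockdown: 100 nM siRNA, 48h, RAW264.7. Stimulation: Pam3CSK4 5 h, then LipidA via TransIT-TKO 24 h. Output: supernatant IL-1a HTRF, negative-control-normalized, log robust z-score; viability by CellTiter-Glo.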
row,Sequence,z-score
1,GGCCAUCCAAGCAUGAGUUTT against Rbfa,inactive: 1.37
2,GGGCAUAGACAGUACCAGUTT against Clec2m,active: -2.04
3,CCAAGUUUCAGAAGGAUUATT against Niban1,inactive: -0.0593
4,UGCCGCUGCUGAUCCUUACTT against Rbfox3,inactive: -1.87
5,GGAGAAGAUUUUCUGUAUCTT against Atp13a5,inactive: 0.545
6,GGUUUCAGAUGAGAAUGUATT against Mybpc3,inactive: -0.561
7,GCAGUUGUCACUGGCAAGUTT against Aqp2,active: 2.21
8,GGAAUUGAACAAAACCAUCTT against Slfn9,inactive: 1.32
9,GCAUCUCGCCACAUCUUGATT against Prm1,inactive: -0.54
10,GCUUGGAGGAUACAUUCACTT against Gjb2,inactive: 1.76
11,CCGAAGGUGUUCAAAAUUCTT against Mbl2,inactive: 1.32
12,GGCCUUCCUUGACCAAUCUTT against Ren1,active: -2.11
13,GCAGCACGUUGAAAUGAGUTT against Dpp4,inactive: -1.62
14,GGUGGUUGUUGAAUAUAAUTT against Habp4,inactive: 0.303
15,GGUCAUAAGAAGCUCAAGATT against Serpinb9d,inactive: 0.268
16,GGGUUGCCAAGACUUGAUATT against Cd177,inactive: -1.06
17,GGAUGAAACUCCUACCACATT against Rnf112,inactive: -0.785
18,CGAUGAUUCCAAGUUUGGCTT against Pinx1,inactive: -0.291
19,GCUACUUAAGGGUUUGGAUTT against Pcdhb3,active: 4.67
20,GGCAGGUGUCAGAAAUUUCTT against Pisd,inactive: -0.357
21,CCAACCUAAGCACUCCAAATT against Setd1a,inactive: -1.14
22,GCACCUGGUGAAUUUUACCTT against Tmem106c,inactive: -0.85

# 2 entries picked at random from those above, as already listed:
row,Sequence,z-score
11,CCGAAGGUGUUCAAAAUUCTT against Mbl2,inactive: 1.32
19,GCUACUUAAGGGUUUGGAUTT against Pcdhb3,active: 4.67

# (cont.)

row,Sequence,z-score
1,GCAGAGACUACUUAGCAAGTT against Adprm,active: 2.29
2,GGUAUUUUGAUGUUGGACUTT against Hhat,inactive: 0.989
3,GGAACAGAGGAGGUAAAGCTT against Gtpbp2,inactive: -1.99
4,CGGGAUUCAUAGAAACAAATT against Dclk1,inactive: 0.624
5,GGCCUUUUAUCAACGCAGUTT against Npc1l1,inactive: 0.0833
6,GCAGAUCACUGGAGUAAACTT against Spz1,inactive: -0.381
7,GGUGAUUGCCCACAAUCAGTT against Mthfs,inactive: -0.554
8,GGUUCAAUUCACAGAGCGCTT against Mrpl21,inactive: 1.37
9,GCAGUGGAAGUGAAUCUCGTT against Rwdd4a,inactive: 0.169
10,GGUGUCUUAUGAGCAAUAUTT against Pdcd6,inactive: -1.12
11,GGACACAGUCAGACAAAUCTT against Olfr1161,inactive: -1.93
12,GGCUUCCACAUAAAAACGATT against Dctpp1,inactive: 0.474
13,GGUUAUGCAUUACUCUCUUTT against Prkdc,inactive: 0.0207
14,GCAUUUGAACAGUGUGCCATT against Zbtb8os,inactive: -1.61
15,GCAUCGACAAAUGAAUUGGTT against Pyurf,inactive: -0.973
16,GGUCACCACCAUAGCAAGGTT against Gstt4,inactive: 0.485
17,CCGUGCAGAUUAACUUCUUTT against Plk1,inactive: -1.69
18,GCCUCAUUUAUCAUGCGCGTT against Zfp772,inactive: 0.523
19,GGCAGUUUGGACAGCAAGATT against Mybl2,inactive: 0.207
20,GGGAAAAUCCCAAAACUGUTT against Serpinb1a,inactive: -0.159
21,CCUCCUCUAGGGUAGGUAGTT against Pitpnm3,inactive: -1.24
22,GGUUACUUCAAAGACAAAGTT against Med31,inactive: 1.06

row,Sequence,z-score
1,GGAGGAUCCUCUAAAACAGTT against Slc23a3,inactive: -1.21
2,GGUCACAUUUAAUGUCACATT against Itgam,inactive: -0.789
3,GGAGGUAUUCACAGAACUGTT against U2af1l4,inactive: 0.532
4,CCUGUCGUUUAACCCUGUCTT against Fis1,inactive: -0.96
5,CCAUGCCCACUGGAUAGAUTT against Nat14,inactive: -1.21
6,GCCCAUGUGUAAUACAUUUTT against Prps1,inactive: 0.789
7,AGGUAGAAAAACAAUACCGTT against Ikbip,inactive: 1.48
8,GGGCUUGUUUUUGCACUUATT against Blcap,inactive: 0.993
9,GGCUGUGCCAAUUUAAUUUTT against Dsn1,inactive: 0.0219
10,GGCCAUCGCACUUAAACUUTT against 1700123K08Rik,inactive: -0.578
11,GGCUGGAAAAUCAAUUCUUTT against St8sia4,inactive: -0.59
12,GGAGAAAAGAGUUUGCCCGTT against Wfdc12,inactive: -0.329
13,GGAGCUACGAAAAUUAACATT against Thsd4,inactive: -0.138
14,GGAGAGUACAAGGUAUCUUTT against Tab2,inactive: 0.122
15,GGCAUGUUCCUCAUAUGCCTT against Lrit1,active: -2.01
16,GGGAGAUAAAAAGUUAAGGTT against Bclaf1,inactive: 1.38
17,GGACUCAAGGAACCAAAAUTT against Rps3a1,inactive: -0.758
18,GGGUGAAGGACAAGAAAAUTT against Hoxd13,inactive: 0.625
19,GGAAGAAAUGAGAAGGAUATT against Cadm3,inactive: 0.139
20,GGAAGACAUAUUUCAACAGTT against Ehhadh,inactive: -1.37
21,GGCAUGUUGGAGGUAAUAATT against Nanp,inactive: 0.107
22,GCGAGGACAACGGAUUUUATT against Barhl2,inactive: -0.212

row,Sequence,z-score
1,GGUCUCACAAAAACAGUUCTT against Casq2,inactive: -0.317
2,GGAAGUGUGACAGAAUGCGTT against Loxl3,inactive: -1.29
3,GGAGUUACGGGAUUCCGUUTT against Kras,inactive: 1.7
4,GGUUCUUACUUGUAAAUAGTT against Sdad1,inactive: -1.32
5,GCAACCUCUCCUCUCUAGATT against Olfr15,inactive: -1.11
6,GGAGCAAUGGCUAGCAGUUTT against 3110040N11Rik,inactive: 0.0159
7,GGCAGUCGAUACAAACUUUTT against Fto,inactive: -0.481
8,CCUAGAGCUUUUCAGAAUATT against Rsl1d1,inactive: 0.4
9,GGAGCAUGGAUAAUUACAGTT against Trpm6,inactive: -0.241
10,CCAUAUGGUGGUCACGACATT against Dcstamp,inactive: 1.98
11,GGAGUUUCUCUUUAAUCCUTT against Hoxc8,inactive: 0.468
12,GCCCAAACAUGCAUAUGGCTT against 2010003K11Rik,inactive: -1.35
13,GCUCAUAUACACCAUUUCUTT against Tmem171,inactive: -1.12
14,CCCAACUGACAUCUUCCUATT against Gzmb,active: 2.86
15,CCUAAAAGGGUUUUUGCUUTT against Macroh2a3,inactive: 0.763
16,GGCCAAGAUCACCAUCGUGTT against Cldn3,inactive: 0.181
17,ACCAGAACCAGACGCGUAATT against Cox6b2,inactive: 0.848
18,GGCACCUUUGCCUUGACAUTT against Slc26a7,inactive: 0.135
19,GGUUCUCAGGGUCCUAAACTT against Erv3,inactive: -0.904
20,GGUAGUGGAAUGUGGGAGUTT against 2610044O15Rik8,inactive: 1.16
21,GGAAGUGUGCCUAUUUGUGTT against Pnpla6,inactive: 0.0961
22,CCAUUUGUGUAACACCAAUTT against Eif4h,inactive: -0.408

# Laid out differently: entries from further up.
row | Sequence | z-score
6 | GGAGCAAUGGCUAGCAGUUTT against 3110040N11Rik | inactive: 0.0159
7 | GGCAGUCGAUACAAACUUUTT against Fto | inactive: -0.481
8 | CCUAGAGCUUUUCAGAAUATT against Rsl1d1 | inactive: 0.4
9 | GGAGCAUGGAUAAUUACAGTT against Trpm6 | inactive: -0.241
10 | CCAUAUGGUGGUCACGACATT against Dcstamp | inactive: 1.98
11 | GGAGUUUCUCUUUAAUCCUTT against Hoxc8 | inactive: 0.468

# Remaining list, next part

row,Sequence,z-score
1,GCAAGUACGCUGCUCUGUCTT against Eif4b,inactive: 0.397
2,GCACAUGUGACUAGAUUUATT against Cetn2,inactive: 0.904
3,GGUGGACAGAUUUAAGCUUTT against Chtf8,inactive: 0.837
4,GGCGAGCUGGACAGAUUUGTT against Nudt6,active: 3.33
5,GGACAAAGUGGCCUUUAUCTT against Decr2,inactive: -0.811
6,GGACUAUCUCAUCGGAACCTT against Tmco1,inactive: 0.824
7,GGCAGCUUAGCUGUUCGUCTT against Socs4,inactive: -0.664
8,GCCAAUCAAAGACAAGCUUTT against Vkorc1l1,inactive: -1.43
9,GCAACCUCCUUCAAACUUGTT against Ebf2,inactive: -0.919
10,CCGUUACCUUCUUAGAAAATT against Rnf150,inactive: 0.448
11,GGACCAUGCACUUAUGACCTT against Syce2,inactive: -1.01
12,GGCCUUAAAGAAACACAAGTT against Hnrnph2,active: 2.3
13,GGGACAUGAAGAAAAUGGATT against Abcf2,inactive: -0.0385
14,CGUGUUGACUUGUAUUUGUTT against Tmem45a,inactive: -0.326
15,GCCAAAGUCUUGCUAUGUGTT against Uba7,inactive: -0.481
16,GGUGAUUAAAUACUGCUCATT against Vmn1r35,inactive: -0.26
17,CCACACAACAAAAAAGUUGTT against Zfp663,inactive: -1.12
18,GCGUGUGAGUGUGAAGGAATT against Hcar1,inactive: -1.07
19,GCUAAUGAAGCAGAGCUGUTT against Olfr1359,inactive: 0.388
